Results taken from paper PMC8674265.

T1: ELM2 and SANT domain-containing protein 1 (ELMSAN1) (human (endogenous in HEK293T and Hela.cl1)) (UniProt Q6PJG2)
T1 sequence: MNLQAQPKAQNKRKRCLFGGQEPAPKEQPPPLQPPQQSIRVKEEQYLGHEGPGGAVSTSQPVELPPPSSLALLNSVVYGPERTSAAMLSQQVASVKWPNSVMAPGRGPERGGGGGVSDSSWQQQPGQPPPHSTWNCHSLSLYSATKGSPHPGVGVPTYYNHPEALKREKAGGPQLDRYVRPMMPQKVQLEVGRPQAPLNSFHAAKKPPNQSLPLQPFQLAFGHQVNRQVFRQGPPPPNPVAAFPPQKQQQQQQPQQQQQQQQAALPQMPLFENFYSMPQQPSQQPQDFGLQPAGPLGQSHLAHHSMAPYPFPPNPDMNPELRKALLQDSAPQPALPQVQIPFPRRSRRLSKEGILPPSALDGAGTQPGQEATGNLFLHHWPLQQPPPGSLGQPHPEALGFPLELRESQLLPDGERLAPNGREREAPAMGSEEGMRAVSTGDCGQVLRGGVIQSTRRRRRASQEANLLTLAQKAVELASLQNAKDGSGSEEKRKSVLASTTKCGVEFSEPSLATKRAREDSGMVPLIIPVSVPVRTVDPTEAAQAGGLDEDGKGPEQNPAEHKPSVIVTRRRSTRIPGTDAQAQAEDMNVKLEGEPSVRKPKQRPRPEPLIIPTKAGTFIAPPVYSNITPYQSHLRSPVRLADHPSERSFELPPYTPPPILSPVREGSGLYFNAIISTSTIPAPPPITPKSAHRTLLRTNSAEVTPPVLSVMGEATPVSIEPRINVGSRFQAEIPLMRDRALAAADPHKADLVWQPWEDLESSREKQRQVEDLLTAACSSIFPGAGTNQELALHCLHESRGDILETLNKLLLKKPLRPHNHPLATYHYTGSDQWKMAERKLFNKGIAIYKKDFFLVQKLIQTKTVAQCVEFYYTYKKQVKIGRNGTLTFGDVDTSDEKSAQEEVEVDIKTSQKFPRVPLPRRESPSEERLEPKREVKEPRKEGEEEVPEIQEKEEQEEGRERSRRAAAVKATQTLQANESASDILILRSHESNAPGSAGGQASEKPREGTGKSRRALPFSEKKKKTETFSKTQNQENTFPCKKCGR


Target: T1, ELM2 and SANT domain-containing protein 1 (ELMSAN1) (human (endogenous in HEK293T and Hela.cl1))
Test: affinity purification with mass spectrometry; HEK293T nuclear extract precipitated with 5 µg rabbit anti-ELMSAN1 antibody and protein A magnetic beads, eluted with 0.5 M ammonium hydroxide, LC-MS/MS; controls water or normal rabbit IgG; enrichment by spectral counts and SAINT (FC-A > 1); four experiments

Binder | binding
TOP3B (protein, UniProt O95985 1-862) MKTVLMVAEKPSLAQSIAKILSRGSLSSHKGLNGACSVHEYTGTFAGQPVRFKMTSVCGHVMTLDFLGKYNKWDKVDPAELFSQAPTEKKEANPKLNMVKFLQVEGRGCDYIVLWLDCDKEGENICFEVLDAVLPVMNKAHGGEKTVFRARFSSITDTDICNAMACLGEPDHNEALSVDARQELDLRIGCAFTRFQTKYFQGKYGDLDSSLISFGPCQTPTLGFCVERHDKIQSFKPETYWVLQAKVNTDKDRSLLLDWDRVRVFDREIAQMFLNMTKLEKEAQVEATSRKEKAKQRPLALNTVEMLRVASSSLGMGPQHAMQTAERLYTQGYISYPRTETTHYPENFDLKGSLRQQANHPYWADTVKRLLAEGINRPRKGHDAGDHPPITPMKSATEAELGGDAWRLYEYITRHFIATVSHDCKYLQSTISFRIGPELFTCSGKTVLSPGFTEVMPWQSVPLEESLPTCQRGDAFPVGEVKMLEKQTNPPDYLTEAELITLMEKHGIGTDASIPVHINNICQRNYVTVESGRRLKPTNLGIVLVHGYYKIDAELVLPTIRSAVEKQLNLIAQGKADYRQVLGHTLDVFKRKFHYFVDSIAGMDELMEVSFSPLAATGKPLSRCGKCHRFMKYIQAKPSRLHCSHCDETYTLPQNGTIKLYKELRCPLDDFELVLWSSGSRGKSYPLCPYCYNHPPFRDMKKGMGCNECTHPSCQHSLSMLGIGQCVECESGVLVLDPTSGPKWKVACNKCNVVAHCFENAHRVRVSADTCSVCEAALLDVDFNKAKSPLPGDETQHMGCVFCDPVFQELVELKHAASCHPMHRGGPGRRQGRGRGRARRPPGKPNPRRPKDKMSALAAYFV | binds
NOP2 (protein, UniProt P46087 1-812) MGRKLDPTKEKRGPGRKARKQKGAETELVRFLPAVSDENSKRLSSRARKRAAKRRLGSVEAPKTNKSPEAKPLPGKLPKGISAGAVQTAGKKGPQSLFNAPRGKKRPAPGSDEEEEEEDSEEDGMVNHGDLWGSEDDADTVDDYGADSNSEDEEEGEALLPIERAARKQKAREAAAGIQWSEEETEDEEEEKEVTPESGPPKVEEADGGLQINVDEEPFVLPPAGEMEQDAQAPDLQRVHKRIQDIVGILRDFGAQREEGRSRSEYLNRLKKDLAIYYSYGDFLLGKLMDLFPLSELVEFLEANEVPRPVTLRTNTLKTRRRDLAQALINRGVNLDPLGKWSKTGLVVYDSSVPIGATPEYLAGHYMLQGASSMLPVMALAPQEHERILDMCCAPGGKTSYMAQLMKNTGVILANDANAERLKSVVGNLHRLGVTNTIISHYDGRQFPKVVGGFDRVLLDAPCSGTGVISKDPAVKTNKDEKDILRCAHLQKELLLSAIDSVNATSKTGGYLVYCTCSITVEENEWVVDYALKKRNVRLVPTGLDFGQEGFTRFRERRFHPSLRSTRRFYPHTHNMDGFFIAKFKKFSNSIPQSQTGNSETATPTNVDLPQVIPKSENSSQPAKKAKGAAKTKQQLQKQQHPKKASFQKLNGISKGADSELSTVPSVTKTQASSSFQDSSQPAGKAEGIREPKVTGKLKQRSPKLQSSKKVAFLRQNAPPKGTDTQTPAVLSPSKTQATLKPKDHHQPLGRAKGVEKQQLPEQPFEKAAFQKQNDTPKGPQPPTVSPIRSSRPPPAKRKKSQSRGNSQLLLS | binds

Other lines, results leading:

binding | Binder
binds | YTHDC2 (protein, UniProt Q9H6S0 1-1430) MSRPSSVSPRQPAPGGGGGGGPSPCGPGGGGRAKGLKDIRIDEEVKIAVNIALERFRYGDQREMEFPSSLTSTERAFIHRLSQSLGLVSKSKGKGANRYLTVKKKDGSETAHAMMTCNLTHNTKHAVRSLIQRFPVTNKERTELLPKTERGNVFAVEAENREMSKTSGRLNNGIPQIPVKRGESEFDSFRQSLPVFEKQEEIVKIIKENKVVLIVGETGSGKTTQIPQFLLDDCFKNGIPCRIFCTQPRRLAAIAVAERVAAERRERIGQTIGYQIRLESRVSPKTLLTFCTNGVLLRTLMAGDSTLSTVTHVIVDEVHERDRFSDFLLTKLRDLLQKHPTLKLILSSAALDVNLFIRYFGSCPVIYIQGRPFEVKEMFLEDILRTTGYTNKEMLKYKKEKQQEEKQQTTLTEWYSAQENSFKPESQRQRTVLNVTDEYDLLDDGGDAVFSQLTEKDVNCLEPWLIKEMDACLSDIWLHKDIDAFAQVFHLILTENVSVDYRHSETSATALMVAAGRGFASQVEQLISMGANVHSKASNGWMALDWAKHFGQTEIVDLLESYSATLEFGNLDESSLVQTNGSDLSAEDRELLKAYHHSFDDEKVDLDLIMHLLYNICHSCDAGAVLIFLPGYDEIVGLRDRILFDDKRFADSTHRYQVFMLHSNMQTSDQKKVLKNPPAGVRKIILSTNIAETSITVNDVVFVIDSGKVKEKSFDALNFVTMLKMVWISKASAIQRKGRAGRCRPGICFRLFSRLRFQNMLEFQTPELLRMPLQELCLHTKLLAPVNCPIADFLMKAPEPPPALIVRNAVQMLKTIDAMDTWEDLTELGYHLADLPVEPHLGKMVLCAVVLKCLDPILTIACTLAYRDPFVLPTQASQKRAAMLCRKRFTAGAFSDHMALLRAFQAWQKARSDGWERAFCEKNFLSQATMEIIIGMRTQLLGQLRASGFVRARGGGDIRDVNTNSENWAVVKAALVAGMYPNLVHVDRENLVLTGPKEKKVRFHPASVLSQPQYKKIPPANGQAAAIKALPTDWLIYDEMTRAHRIANIRCCSAVTPVTILVFCGPARLASNALQEPSSFRVDGIPNDSSDSEMEDKTTANLAALKLDEWLHFTLEPEAASLLLQLRQKWHSLFLRRMRAPSKPWSQVDEATIRAIIAVLSTEEQSAGLQQPSGIGQRPRPMSSEELPLASSWRSNNSRKSSADTEFSDECTTAERVLMKSPSPALHPPQKYKDRGILHPKRGTEDRSDQSSLKSTDSSSYPSPCASPSPPSSGKGSKSPSPRPNMPVRYFIMKSSNLRNLEISQQKGIWSTTPSNERKLNRAFWESSIVYLVFSVQGSGHFQGFSRMSSEIGREKSQDWGSAGLGGVFKVEWIRKESLPFQFAHHLLNPWNDNKKVQISRDGQELEPLVGEQLLQLWERLPLGEKNTTD
binds | XRN2 (protein, UniProt Q9H0D6 1-950) MGVPAFFRWLSRKYPSIIVNCVEEKPKECNGVKIPVDASKPNPNDVEFDNLYLDMNGIIHPCTHPEDKPAPKNEDEMMVAIFEYIDRLFSIVRPRRLLYMAIDGVAPRAKMNQQRSRRFRASKEGMEAAVEKQRVREEILAKGGFLPPEEIKERFDSNCITPGTEFMDNLAKCLRYYIADRLNNDPGWKNLTVILSDASAPGEGEHKIMDYIRRQRAQPNHDPNTHHCLCGADADLIMLGLATHEPNFTIIREEFKPNKPKPCGLCNQFGHEVKDCEGLPREKKGKHDELADSLPCAEGEFIFLRLNVLREYLERELTMASLPFTFDVERSIDDWVFMCFFVGNDFLPHLPSLEIRENAIDRLVNIYKNVVHKTGGYLTESGYVNLQRVQMIMLAVGEVEDSIFKKRKDDEDSFRRRQKEKRKRMKRDQPAFTPSGILTPHALGSRNSPGSQVASNPRQAAYEMRMQNNSSPSISPNTSFTSDGSPSPLGGIKRKAEDSDSEPEPEDNVRLWEAGWKQRYYKNKFDVDAADEKFRRKVVQSYVEGLCWVLRYYYQGCASWKWYYPFHYAPFASDFEGIADMPSDFEKGTKPFKPLEQLMGVFPAASGNFLPPSWRKLMSDPDSSIIDFYPEDFAIDLNGKKYAWQGVALLPFVDERRLRAALEEVYPDLTPEETRRNSLGGDVLFVGKHHPLHDFILELYQTGSTEPVEVPPELCHGIQGKFSLDEEAILPDQIVCSPVPMLRDLTQNTVVSINFKDPQFAEDYIFKAVMLPGARKPAAVLKPSDWEKSSNGRQWKPQLGFNRDRRPVHLDQAAFRTLGHVMPRGSGTGIYSNAAPPPVTYQGNLYRPLLRGQAQIPKLMSNMRPQDSWRGPPPLFQQQRFDRGVGAEPLLPWNRMLQTQNAAFQPNQYQMLAGPGGYPPRRDDRGGRQGYPREGRKYPLPPPSGRYNWN

Results are given in words; binding and its absence hold for the method and conditions named. In cells and extracts the contact can be indirect. These calls come from enrichment with a bait or labelling near it, and not all partners need be listed.
